This experiment relates to nuclear translocation of 125I-angiogenin in HUVE cells. As to the kind of experiment: Nuclear translocation of 125I-angiogenin in HUVE cells. The note with it: Homo sapiens, 0.5 h, read-out: % inhibition of nuclear translocation of angiogenin.

With `CN[C@@H]1C[C@H]2O[C@@](C)([C@@H]1OC)n1c3ccccc3c3c4c(c5c6ccccc6n2c5c31)C(=O)NC4` [Staurosporine, staurosporine], the inhibition – broadly, the relative decrease from the control value, in per cent – at 0.1 µM is 12%.

For the origin of these results see US6482802B1 (Endowment for Research in Human Biology, Inc., priority 1998, dated 2002).
